Reference: patent US20050112064A1, “DNA-dependent MRI contrast agents” (priority 2003, published 2005)
“Also recorded” adds a separate entry of the source. At least one peptide structure holds a part that was inferred or is arguable (an end, a ring closure or a residue). Where no end group is shown, it is not given here.

How the values were obtained:
[1] = system: supercoiled plasmid DNA (pBR322); assay: DNA gel shift assay (agarose gel electrophoresis); type: binding; details: 5-25 μM ligand, 15 minutes, pBR322, 10 mM Tris pH 8.0
Method: DNA Gel Shift Assays. The affinity of EuP3, EuP2, and each free peptide for supercoiled plasmid DNA was examined by agarose gel electrophoresis. Plasmid (pBR322, New England Biolabs, Inc.) was incubated for 15 minutes at room temperature with increasing concentrations of each ligand (5-25 μM), prior to the addition of loading dye. Each lane contained 1 μg plasmid (50 μM base pairs) in 10 mM Tris buffer at pH 8.0.

cells = assay: Cell entry of P3W; type: cell-based; details: data not shown
[2] = T1-weighted MR imaging of phantoms at 1.5 tesla; details: 1.5 T, HEPES buffer pH 7.4, ambient temperature
Method: FIG. 6. T1-weighted MR images at 1.5 tesla of phantoms in HEPES buffer, pH 7.4, ambient temperature. (A) 3D SPGR TR=40, TE=3.1, α=75°. Images: a) HEPES; b) 80 μM P3W; c) 80 μM DNA (14-mer duplex); d) 115 μM GdDTPA; e) 115 μM GdDTPA+DNA (1:1); f) 8.6 μM GdP3W+DNA (1:1); g) 86 μM GdP3W; h) 86 μM GdP3W+DNA (1:1); i) 86 μM GdP3W+DNA (1:1)+NaCl (150 μM). (B) 3D SPGR TR=40, TE=4.0, α=40°. Images: a) HEPES, b) 48 μM GdDTPA, c) 48 μM GdP3W; d) 48 μM GdP3W+DNA.
P3W peptide ([…], Gd-binding EF-hand site is shaded) was synthesized and purified (>95% by HPLC) by the Caltech Peptide Synthesis Facility, Pasadena, Calif. The gadolinium complex was prepared by dissolving P3W in 50 mM HEPES buffer, pH 7.4, and adding 0.8 equivalents Gd(NO3)3 to give a 500 μM stock solution. Peptide concentration was estimated by absorbance (ε280=7290 M^−1cm^−1); the absence of uncomplexed Gd^3+ was confirmed by colorometric analysis with xylenol orange. All Gd concentrations were determined by ICP-MS (Agilent 7500). Relaxation rates were determined at 20 and 60 MHz, 37° C. using Broker NMS 120 and Brtiker mg60 Minispec spectrometers, respectively. NMRD profiles were recorded on a Koenig-Brown field cycling relaxometer; phantoms were imaged on a GE 1.5T clinical imager.

| Sequence | gel shift / DNA affinity (in words) [1] | entry into cells (cells) | signal / contrast in T1-weighted image, without DNA [2] |
| --- | --- | --- | --- |
| TERRRQQLDKDGDGTIDEREIKIHFQNKRAKIK [P3] | a gel shift is also observed | – | – |
| TERRRQQLDKDGDGTIDEREIKIWFQNKRAKIK [P3W] | – | enter cells in a metal-dependent manner; also recorded: enters cells in the metallated form | gave no signal enhancement |
